Measured values published in paper PMC12824153.
Results are given in words; binding and its absence hold for the method and conditions named. Binding seen in cells or lysates may run through a third protein. A yes stands for co-enrichment or nearness to the bait. Other partners may have been found.

Protein sequences, listed by entry. Tags and fused reporters are not part of them.
UniProt Q8NEV1: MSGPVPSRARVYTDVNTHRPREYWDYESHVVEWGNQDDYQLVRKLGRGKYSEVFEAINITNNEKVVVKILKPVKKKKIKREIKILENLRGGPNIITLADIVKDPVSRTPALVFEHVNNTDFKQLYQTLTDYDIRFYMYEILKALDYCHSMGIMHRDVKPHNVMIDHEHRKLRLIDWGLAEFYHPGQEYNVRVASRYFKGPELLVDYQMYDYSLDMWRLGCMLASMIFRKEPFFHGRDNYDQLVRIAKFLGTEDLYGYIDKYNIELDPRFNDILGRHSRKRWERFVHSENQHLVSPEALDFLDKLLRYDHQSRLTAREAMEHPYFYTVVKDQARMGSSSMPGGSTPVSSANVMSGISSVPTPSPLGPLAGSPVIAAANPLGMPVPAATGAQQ

Molecular target: T1, SFB-IKKβ (kappa-B kinase subunit beta) (UniProt O14920)
T1 sequence: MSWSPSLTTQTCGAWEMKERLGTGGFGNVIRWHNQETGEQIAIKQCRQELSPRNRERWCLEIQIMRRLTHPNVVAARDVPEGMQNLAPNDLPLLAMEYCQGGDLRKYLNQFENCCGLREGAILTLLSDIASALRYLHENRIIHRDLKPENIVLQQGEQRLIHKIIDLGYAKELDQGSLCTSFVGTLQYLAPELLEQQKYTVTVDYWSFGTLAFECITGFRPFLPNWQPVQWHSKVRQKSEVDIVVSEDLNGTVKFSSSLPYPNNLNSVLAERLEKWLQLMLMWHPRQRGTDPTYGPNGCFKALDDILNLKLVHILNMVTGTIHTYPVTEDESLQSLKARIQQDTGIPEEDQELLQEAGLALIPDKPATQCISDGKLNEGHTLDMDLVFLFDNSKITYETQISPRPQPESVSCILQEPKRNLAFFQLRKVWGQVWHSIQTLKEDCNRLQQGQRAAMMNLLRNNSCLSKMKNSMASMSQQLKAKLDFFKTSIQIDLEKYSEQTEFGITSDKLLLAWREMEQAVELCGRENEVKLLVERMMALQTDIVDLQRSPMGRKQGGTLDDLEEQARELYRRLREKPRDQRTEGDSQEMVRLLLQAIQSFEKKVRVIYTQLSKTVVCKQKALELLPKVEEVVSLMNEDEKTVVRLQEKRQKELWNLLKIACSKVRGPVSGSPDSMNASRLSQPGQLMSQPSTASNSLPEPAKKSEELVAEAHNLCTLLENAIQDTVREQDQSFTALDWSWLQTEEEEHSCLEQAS
Experiment: affinity purification with mass spectrometry; SFB-IKKβ complexes immunoprecipitated from A549 cells at 0 kPa or 5 kPa compression (1 h); SDS-PAGE, trypsin digestion, LC-MS/MS, LFQ with MaxQuant

binding: binds
Substance: casein kinase II subunit alpha 3 (CSK23), endogenous (from UniProt Q8NEV1 1-391) (enzyme)
